Patent US6790942 (dated 2004)

Assay: peptide synthesis
Conditions: late stage modification step

Nps-Thr(tBu)-Ser(tBu)-Asp(OtBu)-Tyr(tBu)-Ser(tBu)-Lys-(Boc)-Tyr(tBu)-Leu-Asp(OtBu)-OH
step yield: 90%
